Experimental data: patent US20160252527A1 (Takeda / Millennium, published 2016)
These are yes or no findings as the source states them, for the method shown. Some entries that bind do so weakly or less than the wild type.

Chains of the proteins cited; added tags and fusions are not shown. Residues count along the entry.
UniProt P03952, residues 20-638: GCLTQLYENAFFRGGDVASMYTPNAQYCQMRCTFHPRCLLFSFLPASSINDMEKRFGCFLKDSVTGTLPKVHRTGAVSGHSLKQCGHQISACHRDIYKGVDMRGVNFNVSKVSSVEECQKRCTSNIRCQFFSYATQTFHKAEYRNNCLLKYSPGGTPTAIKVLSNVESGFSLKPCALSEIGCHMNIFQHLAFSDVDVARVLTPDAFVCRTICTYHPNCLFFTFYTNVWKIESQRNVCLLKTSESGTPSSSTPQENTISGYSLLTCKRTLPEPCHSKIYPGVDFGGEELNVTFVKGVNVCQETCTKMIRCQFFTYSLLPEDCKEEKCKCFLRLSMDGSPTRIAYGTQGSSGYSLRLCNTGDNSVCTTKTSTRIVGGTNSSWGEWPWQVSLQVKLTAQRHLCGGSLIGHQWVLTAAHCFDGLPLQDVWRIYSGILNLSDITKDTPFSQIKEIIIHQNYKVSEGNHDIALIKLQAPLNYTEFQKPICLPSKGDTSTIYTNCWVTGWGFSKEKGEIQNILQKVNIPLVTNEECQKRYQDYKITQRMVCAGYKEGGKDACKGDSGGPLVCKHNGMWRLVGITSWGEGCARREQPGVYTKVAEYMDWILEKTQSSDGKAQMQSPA

Columns and labels:
[1] = molecular target: T1, human plasma kallikrein (pKal) (human, UniProt P03952 20-638); assay: sandwich ELISA of complexes in normal human plasma activated with dextran sulfate
[2] = molecular target: T1, human plasma kallikrein (pKal); assay: complex formation, purified by size exclusion chromatography
[3] = molecular target: T1, human plasma kallikrein (pKal); assay: ELISA for the α2M-pKal complex in normal human plasma with and without in vitro activation by dextran sulfate
[4] = molecular target: T1, human plasma kallikrein (pKal); assay: covalent complex purified by size exclusion chromatography (Superdex 200), fractions on SDS-PAGE
[5] = molecular target: T1, human plasma kallikrein (pKal); assay: ELISA for the C1INH-pKal complex in normal human plasma with and without in vitro activation by dextran sulfate
[6] = molecular target: T1, human plasma kallikrein (pKal); assay: covalent complex purified by cation exchange chromatography (Capto S), fractions on SDS-PAGE
[7] = molecular target: T1, human plasma kallikrein (pKal); assay: complex formation, purified by cation exchange chromatography

Measured: binding

B1: alpha 2 macroglobulin (α2M) (other, UniProt P01023 24-1474, looked up)
chain: SVSGKPQYMVLVPSLLHTETTEKGCVLLSYLNETVTVSASLESVRGNRSLFTDLEAENDVLHCVAFAVPKSSSNEEVMFLTVQVKGPTQEFKKRTTVMVKNEDSLVFVQTDKSIYKPGQTVKFRVVSMDENFHPLNELIPLVYIQDPKGNRIAQWQSFQLEGGLKQFSFPLSSEPFQGSYKVVVQKKSGGRTEHPFTVEEFVLPKFEVQVTVPKIITILEEEMNVSVCGLYTYGKPVPGHVTVSICRKYSDASDCHGEDSQAFCEKFSGQLNSHGCFYQQVKTKVFQLKRKEYEMKLHTEAQIQEEGTVVELTGRQSSEITRTITKLSFVKVDSHFRQGIPFFGQVRLVDGKGVPIPNKVIFIRGNEANYYSNATTDEHGLVQFSINTTNVMGTSLTVRVNYKDRSPCYGYQWVSEEHEEAHHTAYLVFSPSKSFVHLEPMSHELPCGHTQTVQAHYILNGGTLLGLKKLSFYYLIMAKGGIVRTGTHGLLVKQEDMKGHFSISIPVKSDIAPVARLLIYAVLPTGDVIGDSAKYDVENCLANKVDLSFSPSQSLPASHAHLRVTAAPQSVCALRAVDQSVLLMKPDAELSASSVYNLLPEKDLTGFPGPLNDQDNEDCINRHNVYINGITYTPVSSTNEKDMYSFLEDMGLKAFTNSKIRKPKMCPQLQQYEMHGPEGLRVGFYESDVMGRGHARLVHVEEPHTETVRKYFPETWIWDLVVVNSAGVAEVGVTVPDTITEWKAGAFCLSEDAGLGISSTASLRAFQPFFVELTMPYSVIRGEAFTLKATVLNYLPKCIRVSVQLEASPAFLAVPVEKEQAPHCICANGRQTVSWAVTPKSLGNVNFTVSAEALESQELCGTEVPSVPEHGRKDTVIKPLLVEPEGLEKETTFNSLLCPSGGEVSEELSLKLPPNVVEESARASVSVLGDILGSAMQNTQNLLQMPYGCGEQNMVLFAPNIYVLDYLNETQQLTPEIKSKAIGYLNTGYQRQLNYKHYDGSYSTFGERYGRNQGNTWLTAFVLKTFAQARAYIFIDEAHITQALIWLSQRQKDNGCFRSSGSLLNNAIKGGVEDEVTLSAYITIALLEIPLTVTHPVVRNALFCLESAWKTAQEGDHGSHVYTKALLAYAFALAGNQDKRKEVLKSLNEEAVKKDNSVHWERPQKPKAPVGHFYEPQAPSAEVEMTSYVLLAYLTAQPAPTSEDLTSATNIVKWITKQQNAQGGFSSTQDTVVALHALSKYGAATFTRTGKAAQVTIQSSGTFSSKFQVDNNNRLLLQQVSLPELPGEYSMKVTGEGCVYLQTSLKYNILPEKEEFPFALGVQTLPQTCDEPKAHTSFQISLSVSYTGSRSASNMAIVDVKMVSGFIPLKPTVKMLERSNHVSRTEVSSNHVLIYLDKVSNQTLSLFFTVLQDVPVRDLKPAIVKVYDYYETDEFAIAEYNAPCSKDLGNA
binds: [1] | [2] | [3] | [4]

B2: C1 inhibitor (C1-INH) (protein, UniProt P05155 23-500, looked up)
chain: NPNATSSSSQDPESLQDRGEGKVATTVISKMLFVEPILEVSSLPTTNSTTNSATKITANTTDEPTTQPTTEPTTQPTIQPTQPTTQLPTDSPTQPTTGSFCPGPVTLCSDLESHSTEAVLGDALVDFSLKLYHAFSAMKKVETNMAFSPFSIASLLTQVLLGAGENTKTNLESILSYPKDFTCVHQALKGFTTKGVTSVSQIFHSPDLAIRDTFVNASRTLYSSSPRVLSNNSDANLELINTWVAKNTNNKISRLLDSLPSDTRLVLLNAIYLSAKWKTTFDPKKTRMEPFHFKNSVIKVPMMNSKKYPVAHFIDQTLKAKVGQLQLSHNLSLVILVPQNLKHRLEDMEQALSPSVFKAIMEKLEMSKFQPTLLTLPRIKVTTSQDMLSIMEKLEFFDFSYDLNLCGLTEDPDLQVSAMQHQTVLELTETGVEAAAASAISVARTLLVFEVQQPFLFVLWDQQHKFPVFMGRVYDPRA
binds: [1] | [5] | [6] | [7]
